PubChem BioAssay AID743121 | NCATS, 2013

Aim: 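Genes whose silencing strengthens cell killing by camptothecin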 (primary screen)
Cells: MDA-MB-231 cells, a human breast cancer line
Knock-down reagent: single siRNA against human genes, 20 nM siRNA (0.8 pmol per well)
Time to read-out: 120 h (drug added 48 h after transfection, read 72 h later)
Treatment: camptothecin 20 nM (about EC30) for 72 h; vehicle 0.1% DMSO in parallel plates
Read-out: 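Cell viability by ATP luminescence (CellTiter-Glo) as % of non-targeting siRNA wells, and the log2 ratio of viability without drug over viability with camptothecin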
Reading the numbers: log2 vehicle/camptothecin viability: higher = stronger sensitisation to camptothecin; viability with camptothecin: higher = more viable cells
Units: viability with camptothecin in % of control
Hit rule: 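Active genes have an RSA gene-level p-value below 0.001, computed from the ratios of their separate siRNAs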
The deposit covers about 26,000 reagents; below is a part drawn at random. 167 of them (0.63%) count as active. 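Calls are per gene from RSA p-values that are not deposited; an individual active-marked siRNA can sensitise only weakly.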 Reagents against one gene are numbered here. Further read-outs or replicates are left out here. Reagent sequences are not shown.

GRM7 (glutamate metabotropic receptor 7) #1 | log2 vehicle/camptothecin viability = -0.471; viability with camptothecin = 98.6; call = inactive
GRM7 (glutamate metabotropic receptor 7) #2 | log2 vehicle/camptothecin viability = 0.017; viability with camptothecin = 79.7; call = inactive
GRM7 (glutamate metabotropic receptor 7) #3 | log2 vehicle/camptothecin viability = -0.213; viability with camptothecin = 115; call = inactive
GRM7 (glutamate metabotropic receptor 7) #4 | log2 vehicle/camptothecin viability = 0.15; viability with camptothecin = 107; call = inactive
AP1S1 (adaptor related protein complex 1 subunit sigma 1) #1 | log2 vehicle/camptothecin viability = -0.349; viability with camptothecin = 84.8; call = inactive
AP1S1 (adaptor related protein complex 1 subunit sigma 1) #2 | log2 vehicle/camptothecin viability = -0.114; viability with camptothecin = 88.6; call = inactive
AP1S1 (adaptor related protein complex 1 subunit sigma 1) #3 | log2 vehicle/camptothecin viability = -0.0854; viability with camptothecin = 61.3; call = inactive
AP1S1 (adaptor related protein complex 1 subunit sigma 1) #4 | log2 vehicle/camptothecin viability = 0.0654; viability with camptothecin = 77.4; call = inactive
KDELR2 (KDEL endoplasmic reticulum protein retention receptor 2) #1 | log2 vehicle/camptothecin viability = 0.213; viability with camptothecin = 95; call = inactive
KDELR2 (KDEL endoplasmic reticulum protein retention receptor 2) #2 | log2 vehicle/camptothecin viability = -0.28; viability with camptothecin = 103; call = inactive
KDELR2 (KDEL endoplasmic reticulum protein retention receptor 2) #3 | log2 vehicle/camptothecin viability = -0.14; viability with camptothecin = 106; call = inactive
KDELR2 (KDEL endoplasmic reticulum protein retention receptor 2) #4 | log2 vehicle/camptothecin viability = 0.189; viability with camptothecin = 93.4; call = inactive
KMO (kynurenine 3-monooxygenase) #1 | log2 vehicle/camptothecin viability = -0.0479; viability with camptothecin = 69.8; call = inactive
KMO (kynurenine 3-monooxygenase) #2 | log2 vehicle/camptothecin viability = 0.0608; viability with camptothecin = 54.1; call = inactive
KMO (kynurenine 3-monooxygenase) #3 | log2 vehicle/camptothecin viability = -0.641; viability with camptothecin = 34.7; call = inactive
KMO (kynurenine 3-monooxygenase) #4 | log2 vehicle/camptothecin viability = -0.127; viability with camptothecin = 94.6; call = inactive
GORASP2 (golgi reassembly stacking protein 2) #1 | log2 vehicle/camptothecin viability = 0.228; viability with camptothecin = 70; call = inactive
GORASP2 (golgi reassembly stacking protein 2) #2 | log2 vehicle/camptothecin viability = 0.0171; viability with camptothecin = 84.3; call = inactive
GORASP2 (golgi reassembly stacking protein 2) #3 | log2 vehicle/camptothecin viability = -0.754; viability with camptothecin = 64.8; call = inactive
GORASP2 (golgi reassembly stacking protein 2) #4 | log2 vehicle/camptothecin viability = 0.0811; viability with camptothecin = 96.4; call = inactive
ANGPT1 (angiopoietin 1) #1 | log2 vehicle/camptothecin viability = 0.0744; viability with camptothecin = 85.9; call = inactive
ANGPT1 (angiopoietin 1) #2 | log2 vehicle/camptothecin viability = -0.18; viability with camptothecin = 104; call = inactive
ANGPT1 (angiopoietin 1) #3 | log2 vehicle/camptothecin viability = -0.153; viability with camptothecin = 88; call = inactive
ANGPT1 (angiopoietin 1) #4 | log2 vehicle/camptothecin viability = -0.0746; viability with camptothecin = 105; call = inactive

5 entries from above, reformatted.
{"target": "KDELR2 (KDEL endoplasmic reticulum protein retention receptor 2)", "siRNA no.": 3, "log2 vehicle/camptothecin viability": -0.14, "viability with camptothecin": 106, "call": "inactive"}
{"target": "KDELR2 (KDEL endoplasmic reticulum protein retention receptor 2)", "siRNA no.": 4, "log2 vehicle/camptothecin viability": 0.189, "viability with camptothecin": 93.4, "call": "inactive"}
{"target": "KMO (kynurenine 3-monooxygenase)", "siRNA no.": 1, "log2 vehicle/camptothecin viability": -0.0479, "viability with camptothecin": 69.8, "call": "inactive"}
{"target": "KMO (kynurenine 3-monooxygenase)", "siRNA no.": 2, "log2 vehicle/camptothecin viability": 0.0608, "viability with camptothecin": 54.1, "call": "inactive"}
{"target": "KMO (kynurenine 3-monooxygenase)", "siRNA no.": 3, "log2 vehicle/camptothecin viability": -0.641, "viability with camptothecin": 34.7, "call": "inactive"}

The listing continues.
CUL3 (cullin 3) #1 | log2 vehicle/camptothecin viability = -0.1; viability with camptothecin = 38.1; call = inactive
CUL3 (cullin 3) #2 | log2 vehicle/camptothecin viability = 0.199; viability with camptothecin = 71.4; call = inactive
CUL3 (cullin 3) #3 | log2 vehicle/camptothecin viability = -0.416; viability with camptothecin = 91.3; call = inactive
CUL3 (cullin 3) #4 | log2 vehicle/camptothecin viability = -0.268; viability with camptothecin = 110; call = inactive
LRRC4C (leucine rich repeat containing 4C) #1 | log2 vehicle/camptothecin viability = -0.133; viability with camptothecin = 105; call = inactive
LRRC4C (leucine rich repeat containing 4C) #2 | log2 vehicle/camptothecin viability = -0.593; viability with camptothecin = 105; call = inactive
LRRC4C (leucine rich repeat containing 4C) #3 | log2 vehicle/camptothecin viability = 0.489; viability with camptothecin = 79.3; call = inactive
LRRC4C (leucine rich repeat containing 4C) #4 | log2 vehicle/camptothecin viability = -0.322; viability with camptothecin = 127; call = inactive
MSH5 (mutS homolog 5) #1 | log2 vehicle/camptothecin viability = 0.187; viability with camptothecin = 70.3; call = inactive
MSH5 (mutS homolog 5) #2 | log2 vehicle/camptothecin viability = -0.29; viability with camptothecin = 71.1; call = inactive
MSH5 (mutS homolog 5) #3 | log2 vehicle/camptothecin viability = -0.489; viability with camptothecin = 47.3; call = inactive
MSH5 (mutS homolog 5) #4 | log2 vehicle/camptothecin viability = -0.0888; viability with camptothecin = 64.8; call = inactive
